Measurements published in patent US10040806B2, “Microbiocidally active benzoxaboroles” (Syngenta Participations AG, priority 2014, dated 2018).
Some results were stated once for a whole list of compounds, not compound by compound. For at least one compound, name, drawing or mass did not settle the structure.

Tests used:
[1] = test system: Pythium ultimum; assay: Pythium ultimum/liquid culture (seedling damping off); format: cell-based; details: 20 ppm; liquid culture, potato dextrose broth; inhibition of growth determined photometrically 2-3 days after application
[2] = test system: Monographella nivalis (Microdochium nivale); assay: Monographella nivalis (Microdochium nivale)/liquid culture (foot rot cereals); format: cell-based; details: 20 ppm; liquid culture, PDB; inhibition of growth determined photometrically 4-5 days after application
[3] = test system: Gaeumannomyces graminis; assay: Gaeumannomyces graminis/liquid culture (take-all of cereals); format: cell-based; details: 20 ppm; liquid culture, PDB; inhibition of growth determined photometrically 4-5 days after application
[4] = test system: Mycosphaerella arachidis (Cercospora arachidicola); assay: Mycosphaerella arachidis (Cercospora arachidicola)/liquid culture (early leaf spot); format: cell-based; details: 20 ppm; liquid culture, PDB; inhibition of growth determined photometrically 4-5 days after application
[5] = test system: Puccinia recondita f. sp. tritici; assay: Puccinia recondita f. sp. tritici/wheat/leaf disc preventative (brown rust); format: in vivo; details: 200 ppm, wheat leaf segments cv Kanzler, inoculated 1 day after application, assessed 7-9 days after application
[6] = test system: Sclerotinia sclerotiorum; assay: Sclerotinia sclerotiorum/liquid culture (cottony rot); details: 20 ppm; liquid culture, PDB; inhibition of growth determined visually 3-4 days after application
[7] = test system: Thanatephorus cucumeris (Rhizoctonia solani); details: 20 ppm; liquid culture, PDB; inhibition of growth determined photometrically 3-4 days after application
[8] = test system: Fusarium culmorum; format: cell-based; details: 20 ppm
[9] = test system: Mycosphaerella graminicola (Septoria tritici); assay: Mycosphaerella graminicola (Septoria tritici)/liquid culture (Septoria blotch); format: cell-based; details: 20 ppm; liquid culture, PDB; inhibition of growth determined photometrically 4-5 days after application
[10] = test system: Glomerella lagenarium (Colletotrichum lagenarium); assay: Glomerella lagenarium (Colletotrichum lagenarium)/liquid culture (anthracnose); format: cell-based; details: 20 ppm; liquid culture, PDB; inhibition of growth measured photometrically 3-4 days after application
[11] = test system: Plasmopara viticola; format: in vivo; details: 200 ppm; grape vine leaf disks, preventative, inoculated 1 day after application; assessed 6-8 days after application

Measured: disease control

CCC(Oc1cc2c(cc1Cl)COB2O)C(=O)OC (racemic) [Compound 77]
at least 80%: [1] | [2] | [3] | [4] | [5] | [6]

COc1ccc2c(c1F)B(O)OC2 [Compound 22]
not listed: [3] | [5] | [10] | [11]
at least 80%: all other assays above

OB1OCc2cc(Cl)c(OCc3ccc(F)cc3)cc21 [Compound 26]
at least 80%: [2] | [5]

O=C(Oc1cc2c(cc1F)COB2O)c1ccc(F)cc1 [Compound 28]
at least 80%: [1] | [2] | [5] | [10] | [8] | [9]

OB1OCc2cc(F)c(OCc3ccsc3)cc21 [Compound 34]
at least 80%: [1] | [2] | [5] | [9]

CCOc1ccc2c(c1F)B(O)OC2 [Compound 37]
not listed: [5] | [11]
at least 80%: all other assays above

CCC(=O)COc1cc2c(cc1F)COB2O [Compound 50]
not listed: [5] | [9] | [11]
at least 80%: all other assays above

OB1OCc2cc(Cl)c(OCCCF)cc21 [Compound 87]
at least 80%: [1] | [2] | [3] | [4] | [10] | [11]

OB1OCc2cc(Cl)c(O)c(Cl)c21 [Compound 94, 5,7-dichloro-1-hydroxy-3H-2,1-benzoxaborol-6-ol]
at least 80%: [11]

CCOc1c(Cl)cc2c(c1Cl)B(O)OC2 [Compound 95, 5,7-dichloro-6-ethoxy-1-hydroxy-3H-2,1-benzoxaborole]
at least 80%: [11]

CCOc1c(Cl)cc2c(c1Br)B(O)OC2 [Compound 99]
not listed: [8] | [11]
at least 80%: all other assays above

CCCOc1cc2c(cc1Cl)COB2O [Compound 101]
not listed: [11]
at least 80%: all other assays above

COc1c(Cl)ccc2c1B(O)OC2 [Compound 107]
not listed: [3] | [5] | [11]
at least 80%: all other assays above
